Measured values from PubChem BioAssay AID504834 (National Center for Advancing Translational Sciences (NCATS), 2011).
Hit rate of the full screen: of about 320,000 compounds, about 22,000 (6.9%) were called active. Inconclusive results, whose numbers are uncertain, are shown with a selection of clear calls. Calls come from the whole dose curve; as a rule, active = well fitted inhibition curve with a large enough effect; inconclusive = small, poorly fitted or top-dose-only effect, or another doubt; inactive = no such curve, though single readings can be large or run the other way. Potencies of inconclusive entries are doubtful fits and often do not repeat.

Assay: Primary qHTS for delayed death inhibitors of the malarial parasite plastid, 96 hour incubation
Conditions: P. falciparum luciferase reporter growth; series mostly up to 28.7 µM; activity change, negative = inhibition: at the top concentration
In short: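 P. falciparum expressing integrated firefly luciferase, in erythrocytes at 2% hematocrit, 0.05% parasitemia, incubated with compounds 96 h at 37 C, 5% CO2. Growth inhibition read as loss of luminescence; two-generation exposure targets delayed-death apicoplast inhibitors.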
% is set by controls: 0 for no effect and ±100 for the full control effect; potency is the fitted concentration of half-maximal effect.

Row | Structure (SMILES) | Potency | activity change, negative = inhibition
1 | Cn1cnc([N+](=O)[O-])c1Sc1ccccc1 | active: 11.7 µM | 
2 | S=c1[nH]nc(-c2ccc(Br)cc2)n1-c1ccc2c(c1)OCCO2 | inconclusive: 18.5 µM [inhibitor, single point] | 
3 | NC(=O)CC(NC(=O)Cc1ccc(Br)cc1)c1ccc(NCCc2ccc(F)cc2)c([N+](=O)[O-])c1 (stereo unspecified) | inconclusive: 18.5 µM [inhibitor, partial curve, poor fit] | 
4 | COc1ccc(-c2cc(-c3ccccc3)nc(SC(C)C(=O)O)c2C#N)cc1 (stereo unspecified) | inconclusive: 11.7 µM [inhibitor, single point] | 
5 | COc1cc2c(cc1OC)CN(CC(=O)Nc1ccc3c(c1)OC(F)(F)O3)CC2 |  | inactive: -22%
6 | C=C(C)Cn1c(=O)c2c(nc3n2CCCN3CCc2ccccc2)n(C)c1=O |  | inactive: -5.56%
7 | Cc1ccc(S(=O)(=O)N2CCOCC2)cc1C(=O)N1CC(C)OC(C)C1 (stereo unspecified) |  | inactive: 5.35%
8 | Cc1cc(C)c(S(=O)(=O)N2CCCCC2)c(C)c1N(C)S(=O)(=O)c1ccccc1 | inconclusive: 4.15 µM [inhibitor, single point] | 
9 | O=c1[nH]c(C(Cl)(Cl)Cl)nc2ccc3ccccc3c12 |  | inactive: -27.9%
10 | Cc1ccc(N(CCC#N)C(=O)CSc2ccc3c(c2)OCCO3)cc1 | inconclusive: 0.0037 µM [inhibitor, full curve, poor fit] | 
11 | Cn1c(SCC(=O)NC(C)(C)C)nnc1-c1ccc(C(C)(C)C)cc1 |  | inactive: 38.8%
12 | Cn1nnnc1SCC(=O)c1ccc2c(c1)OCCO2 | inconclusive: 18.5 µM [inhibitor, single point] | 
13 | CCc1ccccc1OCC(=O)Nc1ccc(N2CCCC2)cc1C | active: 2.62 µM | 
14 | O=Cc1ccccc1-n1cncn1 |  | inactive: 19.4%
15 | CCCCOc1ccc2ccccc2c1C=O |  | inactive: 38.8%
16 | CCC1=C/C(=C/N(C)c2ccccc2)C(=O)S1 | inconclusive: 16.5 µM [inhibitor, single point] | 
17 | COC(=O)c1ccccc1NC1=C/C(=N\S(=O)(=O)c2ccc(C(=O)O)cc2)c2ccccc2C1=O |  | inactive: 12.8%
18 | CNC(=S)N(CCc1c(C)[nH]c2ccc(Cl)cc12)Cc1cccs1 | inconclusive: 14.7 µM [inhibitor, single point] | 
19 | O=C(CNC(=O)c1ccccc1Br)N/N=C/c1ccco1 |  | inactive: 58.1%
20 | CCCn1c(SCC(=O)Nc2ccc(Cl)cc2)n[nH]c1=O | inconclusive: 1.31 µM [inhibitor, partial curve, poor fit] | 
21 | COC(=O)/C=C1/S/C(=N/NC(=O)c2ccc(OC)cc2)NC1=O | inconclusive: 4.65 µM [inhibitor, partial curve] | 
22 | CN(C)CCCN(C(=O)c1ccc(S(=O)(=O)N2CCCCCC2)cc1)c1nc2cc3c(cc2s1)OCCO3 | inconclusive: 18.5 µM [inhibitor, single point] | 
23 | CCn1c(C)nc2c1C(=O)c1ccccc1C2=O | inconclusive: 18.5 µM [inhibitor, single point] | 

Row | Structure (SMILES) | Potency | activity change, negative = inhibition
24 | CCOc1ccc(-c2cc(CCCC(=O)Nc3cccc(OC)c3)no2)cc1 |  | inactive: -26.6%
25 | S=C1NC2(CCS1)Oc1ccccc1C1CC(c3ccccc3)=NN12 (stereo unspecified) | inconclusive: 5.22 µM [inhibitor, partial curve] | 
26 | COc1ccc(CCNC(=O)C2CC2)cc1OC |  | inactive: 12.7%
27 | O=C(C1CCC1)N1CCN(c2cccc(C(F)(F)F)c2)CC1 | inconclusive: 14.7 µM [inhibitor, single point] | 
28 | CCOc1ccc(CCNC(=O)CSc2cc(=O)n(C)c3ccccc23)cc1OCC | inconclusive: 4.65 µM [inhibitor, partial curve, poor fit] | 
29 | O=C(c1ccc(Cl)c(S(=O)(=O)Nc2ccc(F)cc2)c1)N1CCN(c2ccccn2)CC1 | inconclusive: 18.5 µM [inhibitor, single point] | 
30 | O=C(C[n+]1ccc2ccccc2c1)Nc1cc(C(F)(F)F)ccc1Cl | inconclusive: 14.7 µM [inhibitor, single point] | 
31 | Cc1noc(NS(=O)(=O)c2ccc(NC(=O)c3ccc(N4C(=O)c5ccccc5C4=O)cc3)cc2)c1C | inconclusive: 8.28 µM [inhibitor, partial curve, poor fit] | 
32 | O=C(COC(=O)c1cccc(OC(F)F)c1)NC1CCCC1 |  | inactive: 41.4%
33 | O=C(Nc1ccc(Cl)cc1F)c1cccc2ccccc12 | inconclusive: 18.5 µM [inhibitor, single point] | 
34 | COc1cc(C(=O)NCCOc2cc(C)ccc2C(C)C)cc(OC)c1OC |  | inactive: 90.8%
35 | O=C(CSc1nnc2ccccn12)NNC(=O)c1ccc(Br)cc1 | inconclusive: 4.15 µM [inhibitor, single point] | 
36 | CCc1cc(C(=O)N2CCCC(CO)(Cc3ccc(F)cc3)C2)n(C)n1 (stereo unspecified) | inconclusive: 13.1 µM [inhibitor, single point] | 
37 | COc1ccc(C2CC(c3ccc4ccccc4c3OC(C)=O)=NN2C(C)=O)cc1 (stereo unspecified) |  | inactive: 21%
38 | COc1cc(OC)cc(C(=O)Nn2cc(C(=O)Nc3ccccc3F)c3ccccc3c2=O)c1 | inconclusive: 18.5 µM [inhibitor, single point] | 
39 | COc1ccc2c(c1)C(c1ccc(Cl)cc1)NC(=O)C2 (stereo unspecified) | inconclusive: 13.1 µM [inhibitor, single point] | 
40 | Cc1ccc(C)c(NC(=S)NC(C)C(c2ccccc2)N2CCN(C)CC2)c1 (stereo unspecified) | inconclusive: 10.4 µM [inhibitor, single point] | 
41 | CC(=O)N(c1ccccc1)c1nc(/C=C/C(=O)Nc2c(C)cc(C)cc2C)cs1 | inconclusive: 14.7 µM [inhibitor, single point] | 
42 | N#CC(C#N)=Cc1ccc(OCC(=O)N2CCOCC2)cc1 | inconclusive: 9.28 µM [inhibitor, single point] | 
43 | COc1ccc(C2(O)CCN(C(=O)NC3CCCCC3)CC2)cc1 |  | inactive: -25.1%
44 | CCOC(=O)C1CCCN(Cc2cc(Br)c(OC)cc2OC)C1 (stereo unspecified) | inconclusive: 16.5 µM [inhibitor, single point] | 
45 | NC1=NC(=O)/C(=C/c2ccc(-c3ccc(S(N)(=O)=O)cc3)o2)S1 |  | inactive: 30.8%
46 | O=C(N/N=C/c1cc(Br)c(O)c(Br)c1)c1cc2c(ccc3ccccc32)o1 | active: 13.1 µM | 

Copied from the list.
Entry for `N#CC(C#N)=Cc1ccc(OCC(=O)N2CCOCC2)cc1` under Potency: inconclusive: 9.28 µM [inhibitor, single point]
Entry for `COc1ccc2c(c1)C(c1ccc(Cl)cc1)NC(=O)C2` (stereo unspecified) under Potency: inconclusive: 13.1 µM [inhibitor, single point]
